Counter-ions that a name gives are not always drawn.

One data set in a line: Diffusivity: panel smelling test, impact of a fragrance over a distance. The conditions noted are these: Example 1; scale 1=no impact within 3 min to 9=high impact within 10 sec; 0.5 g in petri dish at 50 cm, 8 panelists; head range 7 a 9.
`O=CCc1ccccc1`: the Diffusivity is reported as 7.7.

As to `COC(Cc1ccccc1)OC`, the Diffusivity came to 7.9.

In turn, `CC1(C)[C@@H]2CC[C@@]1(C)[C@H](O)C2` (racemic) [ISOBORNEOL] had a Diffusivity of 8.2.

Regarding `COc1ccc(C(C)=O)cc1` [ACETANISOLE CRYST., ACETANISOLE], the Diffusivity worked out at 7.1.

`CC(=O)c1ccccc1` [ACETOPHENONE] showed a Diffusivity of 8.3.

Regarding `CC(=O)c1nccs1` [ACETYL THIAZOLE-2], the Diffusivity amounted to 8.8.

The compound `CCCCCCCC=O` [ALDEHYDE C 8] returned a Diffusivity of 8.

Consider `C=CCOC(=O)COCCC(C)C` [ALLYL AMYL GLYCOLATE], for which the Diffusivity is recorded as 7.8.

Compound `CCCCCOC(C)=O` [AMYL ACETATE N] showed a Diffusivity of 8.8.

In turn, `COc1ccc(C=O)cc1` [ANISIC ALDEHYDE PURE, ANISIC ALDEHYDE] had a Diffusivity of 7.1.

`CC(=O)OCc1ccccc1` [BENZYL ACETATE] displayed a Diffusivity of 7.2.

`O=COCc1ccccc1` [BENZYL FORMATE]: the Diffusivity is 7.3.

`CCCCOC(C)=O` [BUTYL ACETATE] showed a Diffusivity of 7.6.

Regarding `Cc1ccc(O)cc1` [CRESOL PARA], the Diffusivity is listed as 8.1.

In turn, `COc1ccc(C)cc1` [CRESYL METHYL ETHER PARA] gave a Diffusivity of 8.

In turn, `CC(=O)OC1CCCCC1` [CYCLOHEXYL ACETATE] displayed a Diffusivity of 7.9.

In turn, `CCCC(=O)OCC` [ETHYL BUTYRATE] yielded a Diffusivity of 7.8.

Compound `CCCCCC(=O)OCC` [ETHYL CAPROATE] came in with a Diffusivity of 8.2.

The compound `CCOC(=O)CC` [ETHYL PROPIONATE] showed a Diffusivity of 8.7.

In turn, `CC12CCC(C1)C(C)(C)C2O` (stereo not drawn) [FENCHOL] returned a Diffusivity of 7.9.

The compound `CC(=O)C1CCCC(C)(C)C1` (stereo not drawn) [HERBAC] registered a Diffusivity of 7.

In turn, `CCC/C=C/C=O` [HEXENAL TRANS-2] gave a Diffusivity of 8.1.

In turn, `CC/C=C\CCOC(C)=O` [HEXENYL ACETATE CIS-3] yielded a Diffusivity of 7.5.

Turning to `CCCCCCOC(C)=O` [HEXYL ACETATE], the Diffusivity is listed as 7.8.

As for `COC(OC)C(C)c1ccccc1` (stereo not drawn) [HYDRATROPIC ALDEHYDE DIMETH.ACET], the Diffusivity is reported as 7.

The compound `CC(=O)OCCC(C)C` [ISOAMYL ACETATE] yielded a Diffusivity of 7.8.

As for `CC(=O)OCC(C)C` [ISOBUTYL ACETATE], the Diffusivity was 7.8.

`COc1nccnc1C(C)C` [ISOPROPYL METHOXYPYRAZINE-2,3] showed a Diffusivity of 8.4.

`Cc1csc(C(C)C)n1` [ISOPROPYL METHYL THIAZOLE-2,4] had a Diffusivity of 8.4.

In the case of `CC/C=C\CCOC(C)OCC` (stereo not drawn) [LEAF ACETAL], the Diffusivity was 7.5.

`CC/C=C\CCOC(=O)OC` [LEAFOVERT®] showed a Diffusivity of 7.8.

On to `CC1=CC(C)C(C=O)CC1` (stereo not drawn) [LIGUSTRAL], for which the Diffusivity is on record as 7.7.

Compound `CCCC(C)C(=O)OCC` (stereo not drawn) [MANZANATE] registered a Diffusivity of 7.4.

In turn, `CC(=O)c1ccc(C)cc1` [METHYL ACETOPHENONE PARA] had a Diffusivity of 8.2.

For the compound `CCCCCC(=O)OC` [METHYL CAPROATE], the Diffusivity was determined as 7.8.

Compound `CCCCCC#CC(=O)OC` [METHYL HEPTIN CARBONATE] yielded a Diffusivity of 7.5.

Consider `COC(=O)Cc1ccccc1` [METHYL PHENYLACETATE], for which the Diffusivity stood at 7.4.

Take `CC(=O)CCC=C(C)C` [METIL-6-HEPTEN-5-ONA-2 SUPRA, METIL-6-HEPTEN-5-ONA-2]: the Diffusivity was determined as 7.5.

With `CC/C=C\CC/C=C/C=O` [NONADIENAL TRANS,CIS-2,6], the Diffusivity is 8.3.

In turn, `CCCCCCC(C)=O` [OCTANONE-2] showed a Diffusivity of 7.7.

`CCCCCC(=O)CC` [OCTANONE-3] showed a Diffusivity of 7.9.

Compound `OCCc1ccccc1` [PHENYLETHYL ALCOHOL BA FREE, PHENYLETHYL ALCOHOL] gave a Diffusivity of 7.

For the compound `O=COCCc1ccccc1` [PHENYLETHYL FORMATE], the Diffusivity is 7.

For `CC(=O)OCC=C(C)C` [PRENYL ACETATE], the Diffusivity worked out at 8.1.

In turn, `CC(=O)OC(C)c1ccccc1` (stereo not drawn) [STYRALYL ACETATE] registered a Diffusivity of 7.2.

Consider `CC(CC=O)c1ccccc1` (stereo not drawn) [TRIFERNAL], for which the Diffusivity stood at 7.7.

The compound `CC1=CC(C)C(C=O)CC1` (stereo not drawn) [VERTOCITRAL] came in with a Diffusivity of 8.1.

HEXENYL ACETATE CIS TRANS-3 had a Diffusivity of 7.4.

The compound ISOOCTANONE displayed a Diffusivity of 8.1.

MENTHONE L/ISOMENTHONE D: the Diffusivity is given as 8.8.

Turning to “MENTHONE/ISOMENTHONE [MENTHONE/ISOMENTHONE RAC.]”, the Diffusivity was determined as 7.9.

Still in this data set, the particulars now being: Example 2; scale 1=no impact within 3 min to 9=high impact within 10 sec; 0.5 g in petri dish at 50 cm, 8 panelists; head range 7 a 9.
As for `CCCCCC1CCC(=O)O1` (stereo not drawn) [ALDEHYDE C18 SO-CALLED], the Diffusivity was found to be 7.9.

`O=c1ccc2ccccc2o1` [COUMARIN]: the Diffusivity came to 7.1.

Compound `C=CCOC(=O)COC1CCCCC1` [CYCLOGALBANAT®] displayed a Diffusivity of 8.3.

With `CCCCCC1CCCC(=O)O1` (stereo not drawn) [DECALACTONE DELTA], the Diffusivity came to 7.4.

Consider `CCCCCCC1CCC(=O)O1` (stereo not drawn) [DECALACTONE GAMMA], for which the Diffusivity is listed as 7.3.

As to `CCc1occc(=O)c1O` [ETHYL MALTOL], the Diffusivity worked out at 7.1.

On to `CCOC(=O)COc1ccccc1` [ETHYL PHENOXY ACETATE], for which the Diffusivity stood at 7.8.

For the compound `CCOC(=O)Cc1ccccc1` [ETHYL PHENYL ACETATE], the Diffusivity stood at 7.2.

The compound `O=Cc1ccc2c(c1)OCO2` [HELIOTROPIN] registered a Diffusivity of 7.1.

Consider `CCCC1CCC(=O)O1` (stereo not drawn) [HEPTALACTONE GAMMA], for which the Diffusivity is on record as 7.8.

The compound `c1ccc2[nH]ccc2c1` [INDOLE FF, INDOLE] registered a Diffusivity of 8.

Compound `COc1nccnc1CC(C)C` [ISOBUTYL METHOXYPYRAZINE-3,2] displayed a Diffusivity of 8.1.

On to `CC=Cc1ccc(O)c(OC)c1` [ISOEUGENOL], for which the Diffusivity amounted to 7.5.

Regarding `COC(=O)c1ccccc1N` [METHYL ANTHRANILATE (=130085), METHYL ANTHRANILATE], the Diffusivity was determined as 7.5.

Turning to `CCOc1cc(COC)ccc1O` [METHYL DIANTILIS], the Diffusivity is given as 7.4.

`COc1cc(C)ccc1O` [METHYL GUAIACOL-4] gave a Diffusivity of 8.2.

In turn, `COC(=O)c1ccccc1O` [METHYL SALICYLATE PF, METHYL SALICYLATE] displayed a Diffusivity of 7.7.

With `CC(C)(CO)Cc1ccccc1` [MUGUETALCOHOL], the Diffusivity is recorded as 7.3.

The compound `CC/C=C/CC/C=C/CO` [NONADIENOL-2,6] came in with a Diffusivity of 7.2.

For `CCCCC1CCCC(=O)O1` (stereo not drawn) [NONALACTONE DELTA], the Diffusivity stood at 8.2.

Consider `CCCC1CCCC(=O)O1` (stereo not drawn) [OCTALACTONE DELTA], for which the Diffusivity turned out to be 7.5.

In turn, `CCCCC1CCC(=O)O1` (stereo not drawn) [OCTALACTONE GAMMA] gave a Diffusivity of 7.5.

`COc1cc(C=O)ccc1O` [VANILLIN] returned a Diffusivity of 7.

Take PARMANYL®: the Diffusivity stood at 7.7.
